Literature values as cited in patent EP0102564A2, “Method for the removal of toxins bound to protein or lipid from blood or blood fractions, and use of certain compounds as liberating agents” (FRAUNHOFER-GESELLSCHAFT ZUR FÖRDERUNG DER ANGEWANDTEN …, priority 1982, dated 1984).

System: Plasmaproteine
Settings: plasma; cited from earlier work

**Q.** Which “Bindung von Pharmaka an Plasmaproteine” value does the source give for `CN1C(=O)CN=C(c2ccccc2)c2cc(Cl)ccc21` [Diazepam] here?
**A.** 96%
